Assay results: paper PMC4439114
Results are given in words; binding and its absence hold for the method and conditions named. Binding seen in cells or lysates may run through a third protein. Some entries that bind do so weakly or less than the wild type.

Target: death receptor (DR)5 (human (endogenous in L-O2)), O14763
Experiment: co-IP; DR5 immunoprecipitated (DISC isolation) from whole-cell extracts of L-O2 and L-O2-HBx cells 15 min after TRAIL (30 ng/ml), also L-O2-HBx cells transfected with the A20 expression vector or control vector; IP buffer 1% Nonidet P-40, 50 mM Tris-HCl pH 7.4, 50 mM EDTA, 150 mM NaCl; protein A/G plus agarose beads and 5 ug antibody overnight at 4 °C; partners detected by western blot
Conditions: remark: other sources report otherwise

B1: caspase-8, Q14790 1-479 (enzyme)
chain: MDFSRNLYDIGEQLDSEDLASLKFLSLDYIPQRKQEPIKDALMLFQRLQEKRMLEESNLSFLKELLFRINRLDLLITYLNTRKEEMERELQTPGRAQISAYRVMLYQISEEVSRSELRSFKFLLQEEISKCKLDDDMNLLDIFIEMEKRVILGEGKLDILKRVCAQINKSLLKIINDYEEFSKERSSSLEGSPDEFSNGEELCGVMTISDSPREQDSESQTLDKVYQMKSKPRGYCLIINNHNFAKAREKVPKLHSIRDRNGTHLDAGALTTTFEELHFEIKPHDDCTVEQIYEILKIYQLMDHSNMDCFICCILSHGDKGIIYGTDGQEAPIYELTSQFTGLKCPSLAGKPKVFFIQACQGDNYQKGIPVETDSEEQPYLEMDLSSPQTRYIPDEADFLLGMATVNNCVSYRNPAEGTWYIQSLCQSLRERCPRGDDILTILTEVNYEVSNKDDKKNMGKQMPQPTFTLRKKLVFPSD
B1 was tested, and the binding was “binds”.
